Results from patent publication US7947715B2, “Isoxazoline compound and pesticide” (Nissan Chemical Industries, Ltd., priority 2006, dated 2011).
Some of these results come from one statement about several compounds together. At least one compound was matched to its structure with a doubt left.

Tested on: cabbage moth (Plutella xylostella)
Assay: Insecticidal test against cabbage moth (leaf dip)
Type: in vivo
Conditions: second instar larva, after 6 days

Structure (SMILES)	insecticidal rate (rate of dead insects) (10 ppm (**)) [%]	also measured
O=C(CC1CC1)N(Cc1ccc(C2=NOC(c3cc(C(F)(F)F)cc(C(F)(F)F)c3)(C(F)(F)F)C2)cc1Cl)CC1CC1 (racemic) [7-051]	≥ 80	–
C#CCN(Cc1ccc(C2=NOC(c3cc(C(F)(F)F)cc(C(F)(F)F)c3)(C(F)(F)F)C2)cc1Cl)C(=O)CC1CC1 (racemic) [7-052]	≥ 80	–
CN(Cc1ccc(C2=NOC(c3cc(C(F)(F)F)cc(C(F)(F)F)c3)(C(F)(F)F)C2)cc1Cl)C(=O)n1ccnc1 (racemic) [7-053]	–	insecticidal rate (rate of dead insects) (100 ppm (*)): ≥ 80%
CCNC(=O)N(C)Cc1ccc(C2=NOC(c3cc(C(F)(F)F)cc(C(F)(F)F)c3)(C(F)(F)F)C2)cc1Cl (racemic) [7-054]	≥ 80	–
CCNC(=O)N(CC)Cc1ccc(C2=NOC(c3cc(C(F)(F)F)cc(C(F)(F)F)c3)(C(F)(F)F)C2)cc1Cl (racemic) [7-055]	≥ 80	–
CCCN(Cc1ccc(C2=NOC(c3cc(C(F)(F)F)cc(C(F)(F)F)c3)(C(F)(F)F)C2)cc1Cl)C(=O)NCC (racemic) [7-056]	≥ 80	–
CCNC(=O)N(Cc1ccc(C2=NOC(c3cc(C(F)(F)F)cc(C(F)(F)F)c3)(C(F)(F)F)C2)cc1Cl)CC1CC1 (racemic) [7-057]	≥ 80	–
C#CCN(Cc1ccc(C2=NOC(c3cc(C(F)(F)F)cc(C(F)(F)F)c3)(C(F)(F)F)C2)cc1Cl)C(=O)NCC (racemic) [7-058]	≥ 80	–
CCC(=O)N(CC)Cc1ccc(C2=NOC(c3cc(C(F)(F)F)cc(C(F)(F)F)c3)(C(F)(F)F)C2)cc1Cl (racemic) [7-060]	≥ 80	–
CCC(=O)N(CC)Cc1ccc(C2=NOC(c3cc(Cl)c(Cl)c(C(F)(F)F)c3)(C(F)(F)F)C2)cc1Cl (racemic) [7-061]	≥ 80	–
CCCN(Cc1ccc(C2=NOC(c3cc(C(F)(F)F)cc(C(F)(F)F)c3)(C(F)(F)F)C2)cc1Cl)C(=O)CC (racemic) [7-063]	≥ 80	–
CCC(=O)N(CC#N)Cc1ccc(C2=NOC(c3cc(C(F)(F)F)cc(C(F)(F)F)c3)(C(F)(F)F)C2)cc1Cl (racemic) [7-064]	≥ 80	–
CCC(=O)N(CC#N)Cc1ccc(C2=NOC(c3cc(Cl)c(Cl)c(C(F)(F)F)c3)(C(F)(F)F)C2)cc1Cl (racemic) [7-065]	≥ 80	–
C=CCN(Cc1ccc(C2=NOC(c3cc(C(F)(F)F)cc(C(F)(F)F)c3)(C(F)(F)F)C2)cc1Cl)C(=O)CC (racemic) [7-066]	≥ 80	–
C=CCN(Cc1ccc(C2=NOC(c3cc(Cl)c(Cl)c(C(F)(F)F)c3)(C(F)(F)F)C2)cc1Cl)C(=O)CC (racemic) [7-067]	≥ 80	–
C#CCN(Cc1ccc(C2=NOC(c3cc(C(F)(F)F)cc(C(F)(F)F)c3)(C(F)(F)F)C2)cc1Cl)C(=O)CC (racemic) [7-068]	≥ 80	–
CCCC(=O)N(CC)Cc1ccc(C2=NOC(c3cc(C(F)(F)F)cc(C(F)(F)F)c3)(C(F)(F)F)C2)cc1Cl (racemic) [7-069]	≥ 80	–
CCCC(=O)N(CC)Cc1ccc(C2=NOC(c3cc(Cl)c(Cl)c(C(F)(F)F)c3)(C(F)(F)F)C2)cc1Cl (racemic) [7-070]	≥ 80	–
CCCC(=O)N(CCC)Cc1ccc(C2=NOC(c3cc(C(F)(F)F)cc(C(F)(F)F)c3)(C(F)(F)F)C2)cc1Cl (racemic) [7-071]	≥ 80	–
CCCC(=O)N(CC#N)Cc1ccc(C2=NOC(c3cc(C(F)(F)F)cc(C(F)(F)F)c3)(C(F)(F)F)C2)cc1Cl (racemic) [7-072]	≥ 80	–
CCCC(=O)N(CC#N)Cc1ccc(C2=NOC(c3cc(Cl)c(Cl)c(C(F)(F)F)c3)(C(F)(F)F)C2)cc1Cl (racemic) [7-073]	≥ 80	–
C=CCN(Cc1ccc(C2=NOC(c3cc(Cl)c(Cl)c(C(F)(F)F)c3)(C(F)(F)F)C2)cc1Cl)C(=O)CCC (racemic) [7-074]	≥ 80	–

Structure (SMILES)	insecticidal rate (rate of dead insects) (10 ppm (**)) [%]	also measured
C#CCN(Cc1ccc(C2=NOC(c3cc(C(F)(F)F)cc(C(F)(F)F)c3)(C(F)(F)F)C2)cc1Cl)C(=O)CCC (racemic) [7-075]	≥ 80	–
CN(Cc1ccc(C2=NOC(c3cc(Cl)c(Cl)c(C(F)(F)F)c3)(C(F)(F)F)C2)cc1Cl)C(=O)C1CC1 (racemic) [7-077]	≥ 80	–
CC(C)C(=O)NCc1ccc(C2=NOC(c3cc(Cl)cc(Cl)c3)(C(F)(F)F)C2)cc1 (centres unmarked) [1-001]	–	insecticidal rate (rate of dead insects) (100 ppm (*)): ≥ 80%
O=C(NCc1ccc(C2=NOC(c3cc(Cl)cc(Cl)c3)(C(F)(F)F)C2)cc1)C1CC1 (centres unmarked) [1-002]	–	insecticidal rate (rate of dead insects) (100 ppm (*)): ≥ 80%
O=C(CC1CC1)NCc1ccc(C2=NOC(c3cc(Cl)cc(Cl)c3)(C(F)(F)F)C2)cc1 (centres unmarked) [1-003]	–	insecticidal rate (rate of dead insects) (100 ppm (*)): ≥ 80%
O=C(CCl)NCc1ccc(C2=NOC(c3cc(Cl)cc(Cl)c3)(C(F)(F)F)C2)cc1 (centres unmarked) [1-004]	–	insecticidal rate (rate of dead insects) (500 ppm): ≥ 80%
O=C(NCc1ccc(C2=NOC(c3cc(Cl)cc(Cl)c3)(C(F)(F)F)C2)cc1)C(F)F (centres unmarked) [1-005]	–	insecticidal rate (rate of dead insects) (100 ppm (*)): ≥ 80%
COCC(=O)NCc1ccc(C2=NOC(c3cc(Cl)cc(Cl)c3)(C(F)(F)F)C2)cc1 (centres unmarked) [1-006]	–	insecticidal rate (rate of dead insects) (100 ppm (*)): ≥ 80%
CCOCC(=O)NCc1ccc(C2=NOC(c3cc(Cl)cc(Cl)c3)(C(F)(F)F)C2)cc1 (centres unmarked) [1-007]	–	insecticidal rate (rate of dead insects) (100 ppm (*)): ≥ 80%
CC(C)=CC(=O)NCc1ccc(C2=NOC(c3cc(Cl)cc(Cl)c3)(C(F)(F)F)C2)cc1 (centres unmarked) [1-008]	–	insecticidal rate (rate of dead insects) (100 ppm (*)): ≥ 80%
CCOC(=O)NCc1ccc(C2=NOC(c3cc(Cl)cc(Cl)c3)(C(F)(F)F)C2)cc1 (centres unmarked) [1-009]	–	insecticidal rate (rate of dead insects) (500 ppm): ≥ 80%
O=C(NCc1ccc(C2=NOC(c3cc(Cl)cc(Cl)c3)(C(F)(F)F)C2)cc1)Oc1ccccc1 (centres unmarked) [1-010]	–	insecticidal rate (rate of dead insects) (500 ppm): ≥ 80%
O=C(NCc1ccc(C2=NOC(c3cc(Cl)cc(Cl)c3)(C(F)(F)F)C2)cc1)Nc1ccccc1F (centres unmarked) [1-011]	–	insecticidal rate (rate of dead insects) (500 ppm): ≥ 80%
O=C(NCc1ccc(C2=NOC(c3cc(Cl)cc(Cl)c3)(C(F)(F)F)C2)cc1)c1ccccc1Cl (centres unmarked) [1-020]	–	insecticidal rate (rate of dead insects) (500 ppm): ≥ 80%
O=C(NCc1ccc(C2=NOC(c3cc(Cl)cc(Cl)c3)(C(F)(F)F)C2)cc1)c1cccc(Cl)c1 (centres unmarked) [1-021]	–	insecticidal rate (rate of dead insects) (500 ppm): ≥ 80%
O=C(NCc1ccc(C2=NOC(c3cc(Cl)cc(Cl)c3)(C(F)(F)F)C2)cc1)c1ccc(Cl)cc1 (centres unmarked) [1-022]	–	insecticidal rate (rate of dead insects) (100 ppm (*)): ≥ 80%
Cc1ccccc1C(=O)NCc1ccc(C2=NOC(c3cc(Cl)cc(Cl)c3)(C(F)(F)F)C2)cc1 (centres unmarked) [1-023]	–	insecticidal rate (rate of dead insects) (100 ppm (*)): ≥ 80%
O=C(NCc1ccc(C2=NOC(c3cc(Cl)cc(Cl)c3)(C(F)(F)F)C2)cc1)c1ccccc1C(F)(F)F (centres unmarked) [1-024]	–	insecticidal rate (rate of dead insects) (100 ppm (*)): ≥ 80%
CCOc1ccccc1NC(=O)NCc1ccc(C2=NOC(c3cc(Cl)cc(Cl)c3)(C(F)(F)F)C2)cc1 (centres unmarked) [1-025]	–	insecticidal rate (rate of dead insects) (500 ppm): ≥ 80%
O=C(NCc1ccc(C2=NOC(c3cc(Cl)cc(Cl)c3)(C(F)(F)F)C2)cc1)c1ccccc1[N+](=O)[O-] (centres unmarked) [1-026]	–	insecticidal rate (rate of dead insects) (100 ppm (*)): ≥ 80%
N#Cc1ccccc1C(=O)NCc1ccc(C2=NOC(c3cc(Cl)cc(Cl)c3)(C(F)(F)F)C2)cc1 (centres unmarked) [1-027]	–	insecticidal rate (rate of dead insects) (500 ppm): ≥ 80%
O=C(NCc1ccc(C2=NOC(c3cc(Cl)cc(Cl)c3)(C(F)(F)F)C2)cc1)c1cccs1 (centres unmarked) [1-028]	–	insecticidal rate (rate of dead insects) (100 ppm (*)): ≥ 80%
